{
  "source": "patent US20110294698A1",
  "about": "“PROCESS FOR IDENTIFYING DRUGS FOR TREATING GASTROESOPHAGEAL REFLUX” (Temple University of the Commonwealth System of Higher …, priority 2008, published 2011)",
  "tested_on": "human sling fibers",
  "assay": "nicotine or choline induced relaxation of bethanechol pre-contracted muscle strips",
  "type": "cell-based",
  "note": "For at least one compound, name, drawing or mass did not settle the structure.",
  "data": [
    {"compound": "CN1CCc2cc3c(cc2[C@H]1[C@@H]1OC(=O)c2c1ccc1c2OCO1)OCO3", "note": "[bicuculline]", "values": [
      {"measurement": "inhibition of nicotine induced relaxation", "result": "inhibited"}
    ]}
  ]
}
